The whole screen tested about 1,600 compounds, of which about 20 (1%) were called active.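 Rule for the calls: active = ratio of uncleaved NAD to its breakdown product ADP-ribose above 4, meaning the enzyme was inhibited; inactive = the rest.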 Some of the results follow.

Amino acid sequences for entries named in this document (tags omitted). A change or cut given only in a name is not applied to a line headed by its entry.
UniProt Q6SZW1: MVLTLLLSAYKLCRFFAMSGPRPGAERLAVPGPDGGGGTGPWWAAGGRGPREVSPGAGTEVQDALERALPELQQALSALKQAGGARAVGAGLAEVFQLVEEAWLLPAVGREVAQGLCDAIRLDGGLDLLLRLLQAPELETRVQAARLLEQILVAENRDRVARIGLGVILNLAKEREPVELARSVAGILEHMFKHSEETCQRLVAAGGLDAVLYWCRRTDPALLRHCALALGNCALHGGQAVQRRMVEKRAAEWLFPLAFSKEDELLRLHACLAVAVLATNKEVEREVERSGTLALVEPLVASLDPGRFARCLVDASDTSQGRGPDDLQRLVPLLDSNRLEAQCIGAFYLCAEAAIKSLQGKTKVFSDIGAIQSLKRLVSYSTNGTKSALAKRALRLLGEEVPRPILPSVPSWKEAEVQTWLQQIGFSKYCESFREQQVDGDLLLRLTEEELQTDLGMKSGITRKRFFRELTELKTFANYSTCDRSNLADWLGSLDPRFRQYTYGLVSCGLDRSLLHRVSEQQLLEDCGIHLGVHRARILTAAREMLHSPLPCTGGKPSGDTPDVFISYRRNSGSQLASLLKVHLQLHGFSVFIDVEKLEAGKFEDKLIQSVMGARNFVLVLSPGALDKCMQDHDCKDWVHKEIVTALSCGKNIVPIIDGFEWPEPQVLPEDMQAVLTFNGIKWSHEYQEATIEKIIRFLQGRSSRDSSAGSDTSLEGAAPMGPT

The target of the test is NAD(+) hydrolase SARM1 (Homo sapiens) (UniProt Q6SZW1). Briefly: inhibition of SAM-TIR NAD hydrolysis to ADPR – cell lysate, HPLC readout, primary screen (AID 1508615).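 Note: substrate NAD at 5 µM with 60 min at 37 °C.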 As to conditions: HEK293T SAM-TIR lysate, NAD/ADPR ratio by HPLC; at 5 µM; active compounds read high.
Take `Cc1nnc(Cc2ccccc2)c2n[nH]c(C)c12`: the NAD/ADPR ratio was inactive: 3. Take `Oc1ccc(N=Nc2nccs2)c(O)c1`: the NAD/ADPR ratio was inactive: 3. `NNC(=O)CNc1cccc(Br)c1`: the NAD/ADPR ratio is inactive: 3.

`O=C(Nc1cc(-c2ccccc2)[nH]n1)c1ccc(Cl)cc1`: the NAD/ADPR ratio is inactive: 3.

Consider `Nc1nc(Nc2ccccc2)n[nH]1`, for which the NAD/ADPR ratio was inactive: 3.

For `O=C(Nc1cccc([N+](=O)[O-])c1)c1cc2ccccc2cc1O`, the NAD/ADPR ratio is inactive: 3. Regarding `O=C(Nc1ccc2ncccc2c1)Nc1ccc2ncccc2c1`, the NAD/ADPR ratio was inactive: 3. On to `COc1ccc(N=Nc2c(N)n[nH]c2N)cc1`, for which the NAD/ADPR ratio is inactive: 3.

For `Cc1cccc2cc3cccc(C)c3nc12`, the NAD/ADPR ratio is inactive: 3. To `O=C1C(Cl)=C(O)C2(Cl)C(Cl)=C(Cl)C12Cl` (centres undefined) belongs inactive: 3.

In the case of `CCOC(=O)c1cnc(SCC)[nH]c1=O`, the NAD/ADPR ratio was inactive: 3. Next, `CSc1nc(N)c(C(=O)NC2CCCCC2)s1`: inactive: 3. As to `COC(=O)c1c[n+]([O-])ccc1OC`, the NAD/ADPR ratio was inactive: 3.

With `COc1ccc(C(=S)N2CCN(c3ccccc3Cl)CC2)cc1OC`, the NAD/ADPR ratio is inactive: 3. Next, `NC(=O)c1ncn2c(=O)n(CCCl)nnc12`: inactive: 3.

`CC1OC1c1ccc(-c2ccc(C3OC3C)cc2)cc1` (centres undefined): the NAD/ADPR ratio was inactive: 3. To `CN(C)CCCN1c2ccc3ccccc3c2Sc2cccc(Cl)c21` belongs inactive: 3. As for `O=C(NCc1ccco1)Nc1ccc([N+](=O)[O-])cc1`, the NAD/ADPR ratio is inactive: 3. On to `O=C(O)C1=NN(c2cc(Cl)c(S(=O)(=O)O)cc2Cl)C(=O)C1`, for which the NAD/ADPR ratio was inactive: 3. Next, `CCC(C)Oc1nc2c(c(=O)n(C)c(=O)n2C)n1C` (centres undefined): inactive: 3; `O=C(Nc1ccc(Br)cc1)Nc1ccccc1Cl`: inactive: 3; `C[C@]12CCC3c4ccc(OCC(=O)O)cc4CCC3C1CCC2=O` (some centres undefined): inactive: 3. Next, `CCCCCCC(C)OC(=O)c1ccccc1C(=O)O` (centres undefined): inactive: 3; `Clc1cc2c(c(CSc3nc4ccccc4n4cccc34)c1)OCOC2`: inactive: 3. For the compound `c1ccc(-c2ccc3c(c2)NC(C2Nc4cc(-c5ccccc5)ccc4O2)O3)cc1` (centres undefined), the NAD/ADPR ratio is inactive: 3.

`Cc1cc(NC(=O)Nc2cc(Cl)ccc2C)no1`: the NAD/ADPR ratio is inactive: 3. Next, `ClN=C1C=CC=CC1=NCl`: inactive: 3; `CN(C)N1C(=O)c2c(Cl)c(Cl)c(Cl)c(Cl)c2C1=O`: inactive: 3. In the case of `N#CC1=C(Nc2ccccc2Cl)SC(c2ccncc2)NC1=O` (centres undefined), the NAD/ADPR ratio was inactive: 3.

As to `Clc1nnc2c3ccccc3ccn12`, the NAD/ADPR ratio is inactive: 3. Next, `Cc1nc(N)[nH]c(=O)c1CCCNc1ccc(CCC2(CCl)OCCO2)cc1`: inactive: 3. To `CC1=CC2C(C(O)CC3(C)C2CC(C)C32OCOC23COCO3)C2(C)C/C(=C/O)C(=O)C=C12` (centres undefined) belongs inactive: 3; to `NC(N)=Nc1nc2ccc([N+](=O)[O-])cc2[nH]1`, inactive: 3; to `C=C(C)CN=CC1(C)CCC(C)=CO1` (centres undefined), inactive: 3.

`O=C1OCC/C1=C\c1ccc(O)cc1`: the NAD/ADPR ratio was inactive: 3. To `O=C(Cn1ccc(=O)[nH]c1=O)Nc1ccc(C(=O)O)c(O)c1` belongs inactive: 3; to `c1ccc2sc(SCSc3nc4ccccc4s3)nc2c1`, inactive: 3; to `O=S1(=O)CCC(N(/N=C/c2ccco2)c2ccccc2)C1` (centres undefined), inactive: 3. To `CCCNC(=O)Nc1ccc(C)cc1C` belongs inactive: 3; to `S=c1[nH]c2cc(-c3ccccc3)ccc2o1`, inactive: 3; to `COc1ccc(C(=S)N2CCN(c3cccc(Cl)c3)CC2)cc1`, inactive: 3. On to `C/C(=N\O)C1CC(CC(=O)O)C1(C)C` (centres undefined), for which the NAD/ADPR ratio is inactive: 3. With `CCOC(=O)c1nnsc1-c1ccc(-c2snnc2C(=O)OCC)cc1`, the NAD/ADPR ratio was inactive: 3. Next, `CNC(=O)Nc1ccc(S(N)(=O)=O)cc1`: inactive: 3; `O=C(Oc1ccc[nH]c1=O)c1cccc(Cl)c1`: inactive: 3. `Cc1ccc2nc(Cl)cc(=O)n2c1`: the NAD/ADPR ratio was inactive: 3. With `C(=C\c1ccc(/C=C/c2ccccc2)nn1)/c1ccccc1`, the NAD/ADPR ratio is inactive: 3. With `O=C(O)c1ccc2c(c1Nc1ccccc1)C(=O)c1ccccc1C2=O`, the NAD/ADPR ratio is inactive: 3.

Consider `CSc1nc(=O)[nH]nc1Sc1ccccc1`, for which the NAD/ADPR ratio was inactive: 3.

Regarding `COC(=O)c1c(-c2ccccc2)[nH]c(-c2nccc3ccccc23)c1C(=O)OC`, the NAD/ADPR ratio was inactive: 3. For the compound `Cn1c(=O)c2c(nc(Cc3ccccc3)n2C)n(C)c1=O`, the NAD/ADPR ratio was inactive: 3. Next, `O=C1c2ccccc2C(=O)c2[nH]cnc21`: inactive: 3; `COC(=O)c1ccc(C(=O)OC)c(=O)[nH]1`: inactive: 3; `Cc1cc(=O)c2c(C)ccc(C)c2[nH]1`: inactive: 3. Next, `Cc1cccc(Nc2sc(C(=O)c3cc4cc(Cl)ccc4o3)c(N)c2C#N)c1`: inactive: 3; `Cc1ccc(NC(=O)Nc2c(Cl)cccc2Cl)cn1`: inactive: 3.

Take `N#CC1=C(Nc2ccccc2Cl)SC(c2ccccc2O)NC1=O` (centres undefined): the NAD/ADPR ratio was inactive: 3. For `CC1CCC(C(C)C)C(NC(=O)c2ccncc2)C1` (centres undefined), the NAD/ADPR ratio is inactive: 3.

`CN(C)S(=O)(=O)Nc1cccc(Br)c1`: the NAD/ADPR ratio is inactive: 3. To `CN(C)S(=O)(=O)Nc1ccccn1` belongs inactive: 3; to `COc1ccccc1/C=C/C(=O)/C=C/c1ccccc1O`, inactive: 3; to `Cc1nc2cc[nH]n2c(=O)c1CCc1ccccc1`, inactive: 3. To `CC(=O)[C@H]1CC[C@H]2[C@@H]3CCC4=CC(=O)C=C[C@]4(C)[C@H]3C(=O)C[C@]12C` belongs inactive: 3; to `COC(=O)Cc1[nH]c(=S)[nH]c1C(=O)OC`, inactive: 3. For the compound `COCCn1c2nc(=O)n(-c3ccccc3)c(=O)c-2nc2ccccc21`, the NAD/ADPR ratio is inactive: 3. Next, `C=CCNC(=S)NCC=C`: inactive: 3; `O=C1C2C3C=CC(CC3)C2S(=O)(=O)C2C3C=CC(CC3)C12` (centres undefined): inactive: 3; `Cc1cccc(NC(=S)Nc2cccc(C)n2)n1`: inactive: 3. On to `Cn1cnc([N+](=O)[O-])c1Sc1ncn[nH]1`, for which the NAD/ADPR ratio is inactive: 3.

With `CCSc1nc(O)cc(=O)[nH]1`, the NAD/ADPR ratio is inactive: 3. Turning to `Oc1ccc(Nc2ccnc3cc(Cl)ccc23)cc1`, the NAD/ADPR ratio was inactive: 3.

Regarding `Cc1ccc(NC(=O)N2CCCCC2)cc1NC(=O)N1CCCCC1`, the NAD/ADPR ratio was inactive: 3. In the case of `CCOC(=O)N1C/C(=C\c2ccccc2)C(=O)/C(=C/c2ccccc2)C1`, the NAD/ADPR ratio is inactive: 3.

Regarding `OC(c1cc(C(F)(F)F)nc2c(Cl)cc(Cl)cc12)C1CCCCN1` (centres undefined), the NAD/ADPR ratio is inactive: 3. Next, `COc1cnc(SC)nc1Nc1ccc(C#N)cc1`: inactive: 3; `O=C(Nc1ccc(Oc2ccc(NC(=O)Nc3ccc([N+](=O)[O-])cc3)cc2)cc1)Nc1ccc([N+](=O)[O-])cc1`: inactive: 3; `NC(N)=NCCCS(=O)(=O)Nc1ccc(Nc2c3ccccc3nc3cc([N+](=O)[O-])ccc23)cc1`: inactive: 3.

Regarding `O=c1c2ccccc2ncn1-c1ccc(Cl)cc1`, the NAD/ADPR ratio was inactive: 3.

Turning to `S=C1NC2(CCCCCC2)NN1c1ccccc1`, the NAD/ADPR ratio was inactive: 3.

Take `Fc1ccc(-c2cc(-c3cccs3)cc(-c3ccccc3)n2)cc1`: the NAD/ADPR ratio was inactive: 3. Regarding `CCOc1nc(OCC)c2cnn(C)c2n1`, the NAD/ADPR ratio was inactive: 3.

Turning to `Oc1cc(CNC2CCCCC2)c(O)cc1CNC1CCCCC1`, the NAD/ADPR ratio is active: 10.8. Next, `NC(=O)c1ccc(N=Nc2c(O)c3ccccc3[nH]c2=O)cc1`: inactive: 3. To `CCc1c(N=O)c(-c2ccccc2)n(O)[n+]1[O-]` belongs inactive: 3; to `Nc1cc([N+](=O)[O-])ccc1N1C(=O)CCCC1=O`, inactive: 3; to `COC1OC(O)C(NC(=O)C(F)(F)F)CC1O` (centres undefined), inactive: 3. To `O=C(Nc1ccc(C(=O)O)c(O)c1)c1ccccc1` belongs inactive: 3; to `Cc1nc2[nH]c(=O)n(O)c(=O)c2s1`, inactive: 3. Consider `S=c1nc[nH]c2c1ncn2C1CCCO1` (centres undefined), for which the NAD/ADPR ratio was inactive: 3. To `Cc1ccccc1OCC(O)CN1CCN(c2ccc(Cl)cc2)CC1` (centres undefined) belongs inactive: 3; to `CC(=O)OCCn1c2nc(=O)[nH]c(=O)c-2nc2cc(C)c(C)cc21`, inactive: 3; to `Cn1cnc2ncnn2c1=S`, inactive: 3. Next, `COc1cc(NCc2ccccc2O)c2ncccc2c1`: inactive: 3; `O=C(/C=C/c1cccnc1)/C=C/c1cccnc1`: inactive: 3; `N#Cc1cnn(-c2cccc(Cl)c2)c1-n1cccc1`: inactive: 3. As to `COc1cc(CCC(=O)O)on1`, the NAD/ADPR ratio was inactive: 3. With `CC1=NN(c2ccccc2)C(=O)C1C(=S)SC1CC(=O)NC1=O` (centres undefined), the NAD/ADPR ratio was inactive: 3. For the compound `Nc1ccc(NC(=O)c2ccc(C(=O)Nc3ccc(N)cc3)cc2)cc1`, the NAD/ADPR ratio is inactive: 3. To `CCOP(=O)(OCC)/C(C#N)=C/c1c[nH]c2ccccc12` belongs inactive: 3; to `S=C(Sc1ccc(Cl)cc1)Sc1ccc(Cl)cc1`, inactive: 3. For `O=c1[nH]c2ccccc2n1C1=CCNCC1`, the NAD/ADPR ratio was inactive: 3. Next, `Cn1c(=O)c2[nH]c(CCCc3ccc([N+](=O)[O-])cc3)nc2n(C)c1=O`: inactive: 3; `Cn1c2c(sc1=O)CCC2`: inactive: 3. Take `Oc1c(N=Nc2nn[nH]n2)ccc2ccccc12`: the NAD/ADPR ratio is inactive: 3. Next, `COc1ccc2nc(-c3ccc(Cl)cc3)cc(C(=O)O)c2c1`: inactive: 3. Next, `CCCC1OC(c2cc3c(cc2Cl)OCO3)OCC1CC` (centres undefined): inactive: 3; `N#Cc1c(N)nc(N)nc1Nc1ccc(Br)cc1`: inactive: 3; `CCCCSc1cc(=O)[nH]c(N)n1`: inactive: 3.

`CC(=O)Nc1cccc(NC(C)=O)n1`: the NAD/ADPR ratio is inactive: 3. As to `O=C1c2ccccc2C(O)(c2ccccc2)N1c1ccncc1` (centres undefined), the NAD/ADPR ratio was inactive: 3. On to `NC(=O)c1cc(Br)cc(C2CCCCC2)c1O`, for which the NAD/ADPR ratio is inactive: 3. Consider `CCOC(=O)CCC1(C(=O)OC)C(=O)CCCCC/C=C/1C(=O)OC` (centres undefined), for which the NAD/ADPR ratio is inactive: 3. To `O=C1c2ccccc2NC(c2cc(Cl)cc(Cl)c2O)N1CCc1ccccn1` (centres undefined) belongs inactive: 3. Turning to `Nc1ccc2c(c1)N=[N+]([O-])c1cc(N)ccc1C2`, the NAD/ADPR ratio is inactive: 3.

Turning to `CSc1cccc(NC(=O)OC2CCCCCCCCCCC2)c1`, the NAD/ADPR ratio is inactive: 3. For the compound `Cc1nc(-c2ccccc2)c(Cc2ccccc2O)c(=O)[nH]1`, the NAD/ADPR ratio was inactive: 3.

As for `CN(NC(=O)C(=O)NCc1ccco1)C(=O)NC1CCCCC1`, the NAD/ADPR ratio was inactive: 3. To `Cc1cc(N)c2cc(NC(=O)/C=C/c3ccccc3Cl)ccc2n1` belongs inactive: 3; to `O=C(O)c1cc(Cl)n[nH]c1=O`, inactive: 3.

The values above are taken from PubChem BioAssay AID1508615 (Milbrandt Lab, Department of Genetics, Washington …, 2020).
